Data as given in PubChem BioAssay AID1671190 (National Center for Advancing Translational Sciences (NCATS), 2021).
“And” between values parts separate entries of the source, which are not always exact repeats. Equal values may be shown once. Screen size: about 580,000 compounds; about 6,100 (1.1%) were called active. Inconclusive means that the source gave no clear call. Such entries were picked first, then a sample of the others. The call rests on the fitted dose curve; in most records, active means well fitted inhibition curve with a large enough effect; inconclusive means small, poorly fitted or top-dose-only effect, or another doubt; inactive means no such curve, though single readings can be large or run the other way. Where the call is inconclusive, the potency comes from a doubtful curve fit.

Amino acid sequences for entries named in this document (tags omitted). A change or cut given only in a name is not applied to a line headed by its entry.
UniProt P18054: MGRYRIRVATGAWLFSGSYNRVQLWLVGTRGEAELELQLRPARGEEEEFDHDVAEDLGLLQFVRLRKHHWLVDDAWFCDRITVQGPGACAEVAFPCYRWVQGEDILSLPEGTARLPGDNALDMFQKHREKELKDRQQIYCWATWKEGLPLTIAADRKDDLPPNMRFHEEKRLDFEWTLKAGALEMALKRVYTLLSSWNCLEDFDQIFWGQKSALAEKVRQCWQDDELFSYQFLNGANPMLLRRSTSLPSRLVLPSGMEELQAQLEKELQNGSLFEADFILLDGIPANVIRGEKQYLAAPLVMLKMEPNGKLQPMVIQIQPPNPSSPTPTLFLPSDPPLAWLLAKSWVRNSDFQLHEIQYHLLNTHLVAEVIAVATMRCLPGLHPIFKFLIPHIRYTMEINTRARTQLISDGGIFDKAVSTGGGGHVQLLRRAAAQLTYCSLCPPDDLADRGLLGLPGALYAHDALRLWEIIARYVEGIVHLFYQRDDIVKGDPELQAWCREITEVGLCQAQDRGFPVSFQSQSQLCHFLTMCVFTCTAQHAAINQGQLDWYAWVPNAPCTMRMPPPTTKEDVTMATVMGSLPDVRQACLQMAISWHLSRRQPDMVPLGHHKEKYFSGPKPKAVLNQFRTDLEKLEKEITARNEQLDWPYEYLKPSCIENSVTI

Each compound was assayed against Polyunsaturated fatty acid lipoxygenase ALOX12 (Homo sapiens) (UniProt P18054) (assay: Primary qHTS assay for inhibitors of human arachidonate 12S-lipoxygenase (ALOX12): Round 2). Details: purified 12hLO, xylenol orange hydroperoxide absorbance; activity change, negative = inhibition: at 108 µM (top of the series) unless noted.
Procedure, shortened: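 Hydroperoxide product was detected by ferrous iron/xylenol orange as the 573 to 405 nm absorbance ratio. Arachidonic acid at 40 uM (final) was turned over for 30 min at room temperature by 150 nM human 12hLO, pH 7.0 Hepes buffer, after 15 min compound preincubation.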
On the % scale 0 is the no-effect control and ±100 the full control effect; potency means the concentration at half of the fitted maximal effect.

| Structure (SMILES) | Potency | activity change, negative = inhibition |
| --- | --- | --- |
| CCN(CC)C(=O)[C@H]1C[C@H](CC(=O)NCC23CC4CC(CC(C4)C2)C3)C(=O)N2CCc3c([nH]c4ccc(Cl)cc34)[C@]12C | inconclusive: 100 µM [inhibitor, partial curve, poor fit] | – |
| CCOC(=O)c1[nH]c(C)c(C(=O)OCC(=O)NCc2ccc(OC)cc2)c1C | inconclusive: 126 µM [inhibitor, single point] | – |
| C=Cc1ccc(Cn2c(C(=O)O)c(CNCc3ccccc3)c3ccc(OC)cc32)cc1 | active: 3.98 µM | – |
| COc1ccccc1NC(=S)NCCC(c1ccccc1)c1ccccc1 | active: 35.5 µM | – |
| O=C(NCCCc1ccccc1)c1cccc(NC(=O)c2ccccc2)c1 | inconclusive: 39.8 µM [inhibitor, single point] | – |
| C[C@@H](NCc1cccc(Cl)c1)c1onc(-c2ccc(F)cc2)c1C(=O)O | active: 28.2 µM | – |
| Cc1ccc(NC(=O)C(=O)NCC(c2cccnc2)N2CCc3ccccc3C2)cc1 (stereo not given) | – | inactive: -12.8% |
| CC(C)C(c1nnnn1Cc1ccc(F)cc1)N1CCN(C(=O)c2ccco2)CC1 (stereo not given) | inconclusive: 35.5 µM [inhibitor, partial curve, poor fit] | – |
| CC(=O)Nc1cc(-c2ccc(F)cc2)cn2c(-c3ccc(F)cc3)cnc12 | inconclusive: 8.91 µM [inhibitor, partial curve, poor fit] | – |
| O=C(Cn1nc(-c2ccco2)ccc1=O)Nc1ccccc1C(F)(F)F | inconclusive: 39.8 µM [inhibitor, partial curve, poor fit] | – |
| CC1=CC(=O)c2ccccc2C1=O | inactive and inconclusive: 24.3 µM [inhibitor, single point] | – |
| COc1cccc(CNc2ccc(N3CCC(C)CC3)cc2)c1OC | inconclusive: 44.7 µM [inhibitor, partial curve, poor fit] | – |
| Cc1ccccc1CNS(=O)(=O)c1c(C(=O)N2CCCC2)c(C)n(C)c1C | – | inactive: -23.4% |
| O=S(=O)(Nc1ccc(-c2ccc(N3CCCC3)nn2)cc1)c1ccc(OC(F)(F)F)cc1 | – | inactive: -27.2% |
| COC(=O)C1=CN(C(C)C)C=C(C(=O)OC)C1c1ccc(C)s1 | inconclusive: 70.8 µM [inhibitor, partial curve, poor fit] | – |
| Cn1c(SCCCC(=O)c2ccccc2)nnc1-c1ccncc1 | inconclusive: 39.8 µM [inhibitor, partial curve, poor fit] | – |
| O=C(NC1CCCCCC1)c1ccc(CS(=O)c2ccc(Br)cc2)o1 (stereo not given) | – | inactive: -0.6% |
| Cc1cc(=O)[nH]c(N/N=C/c2c(C)nn(-c3ccccc3)c2Cl)n1 | – | inactive: -3.26% |
| CN(C)S(=O)(=O)c1cc(C(=O)Nc2ccccc2C(=O)NC2CC2)ccc1Cl | inconclusive: 126 µM [inhibitor, single point] | – |
| NC(=O)C1CCN(C(=O)c2cc(-c3ccncc3)nc3ccccc23)CC1 | inconclusive: 112 µM [inhibitor, single point] | – |
| C/C(CCc1oc2ccc(C)cc2c1-c1ccc(C)o1)=N\O | active: 39.8 µM and inconclusive: 141 µM [inhibitor, partial curve, poor fit] | – |
| COc1cc(CNC(=O)c2nccnc2N)ccc1OCc1ccncc1 | – | inactive: -44.6% |

Compounds shown so far with a CF3 group, in the order listed:

| Structure (SMILES) | Potency | activity change, negative = inhibition |
| --- | --- | --- |
| O=C(Cn1nc(-c2ccco2)ccc1=O)Nc1ccccc1C(F)(F)F | inconclusive: 39.8 µM [inhibitor, partial curve, poor fit] | – |
| O=S(=O)(Nc1ccc(-c2ccc(N3CCCC3)nn2)cc1)c1ccc(OC(F)(F)F)cc1 | – | inactive: -27.2% |

Ordered by molar mass (rising): part of the list above

| Structure (SMILES) | Potency | activity change, negative = inhibition |
| --- | --- | --- |
| O=C(Cn1nc(-c2ccco2)ccc1=O)Nc1ccccc1C(F)(F)F | inconclusive: 39.8 µM [inhibitor, partial curve, poor fit] | – |
| COc1cc(CNC(=O)c2nccnc2N)ccc1OCc1ccncc1 | – | inactive: -44.6% |
| C=Cc1ccc(Cn2c(C(=O)O)c(CNCc3ccccc3)c3ccc(OC)cc32)cc1 | active: 3.98 µM | – |

Continued:

| Structure (SMILES) | Potency | activity change, negative = inhibition |
| --- | --- | --- |
| COc1ccc(CNC(=S)Nc2ccccc2F)cc1 | inconclusive: 50.1 µM [inhibitor, partial curve] | – |
| COc1ccc(NC(=O)c2cc(Br)c(O)c(OC)c2)cc1NC(C)=O | inconclusive: 50.1 µM [inhibitor, single point] | – |
| Cc1cc(C)c(Cn2c(=O)n(CCCC(=O)NCc3ccco3)c(=O)c3sccc32)c(C)c1 | inconclusive: 89.1 µM [inhibitor, partial curve, poor fit] | – |
| O=C1C=C(O)CC(c2ccco2)C1 (stereo not given) | inconclusive: 31.6 µM [inhibitor, single point] | – |
| CCN1/C(=C/C=C2/SC(=Nc3cccc4ncccc34)N(C)C2=O)Sc2ccccc21 | inconclusive: 100 µM [inhibitor, partial curve, poor fit] | – |
| COc1ccc(C(=O)NCCn2cc(SCC(=O)NCC3CCCO3)c3ccccc32)cc1 (stereo not given) | – | inactive: -11.5% |
| CN(CCCc1cnn(C)c1)C(=O)C1CNCCO1 (stereo not given) | inconclusive: 14.1 µM [inhibitor, full curve] | – |
| COc1ccc(Cl)cc1NC(=O)CSc1nc(=O)[nH]c2c1CCCC2 | inconclusive: 126 µM [inhibitor, partial curve, poor fit] | – |
| CCOC(=O)C1CCCN(Cc2ccccc2F)C1 (stereo not given) | inconclusive: 0.562 µM [inhibitor, full curve, poor fit] | – |
| Cc1ccc(C(=O)Nc2sc3c(c2C(=O)NCc2ccco2)CCCC3)cc1 | inconclusive: 158 µM [inhibitor, partial curve, poor fit] | – |
| CN1CCc2c(sc3ncn4nc(CSc5nc6ccccc6o5)nc4c23)C1 | inconclusive: 35.5 µM [inhibitor, single point] | – |
| CC(C)(NC(=O)NC(CO)c1ccccc1)c1cccc(C(C)(C)NC(=O)NC(CO)c2ccccc2)c1 (stereo not given) | inconclusive: 79.4 µM [inhibitor, partial curve, poor fit] | – |
| O=C(NC1CCCCC1)C(c1ccccc1F)n1c(=O)c(-c2ccco2)nc2ccccc21 (stereo not given) | inconclusive: 35.5 µM [inhibitor, partial curve] | – |
| CCN(CC)c1ccc(NS(=O)(=O)c2ccc(C(C)C)cc2)cc1C(=O)O | – | inactive: -27.8% |
| N=c1ncn(C2OC(CO)C(O)C2O)c2nc(Br)[nH]c12 (stereo not given) | – | inactive: -11.8% |
| COc1ccc(-c2c(-c3ccsc3)oc3ccc(N4CCOCC4)cc23)cc1 | inconclusive: 89.1 µM [inhibitor, single point] | – |
| Cc1nc(NC(=O)c2cncc(Br)c2)ccc1Br | inconclusive: 0.794 µM [inhibitor, full curve] | – |
| CN(C)c1ccc(-c2ccc3ncnc(N(C)Cc4ccco4)c3c2)cc1 | – | inactive: -6.3% |
| COc1ccc(OC)c2c1cc(C(=O)NCCC(=O)Nc1ccc3c(c1)OCCO3)n2C | inconclusive: 3.98 µM [inhibitor, full curve, poor fit] | – |
| CCOc1ccc(N/C(=N/c2nc(C)cc(C)n2)NC(=O)CC)cc1 | inconclusive: 79.4 µM [inhibitor, partial curve, poor fit] | – |
| O=C(c1ccoc1)N1CC[C@@H]2[C@@H](CCC(=O)N2CCc2cnc[nH]2)C1 | – | inactive: 13.3% |
| Cc1ccc(NC(=S)Nc2ccccn2)cc1C | inconclusive: 5.01 µM [inhibitor, full curve, poor fit] | – |

| Structure (SMILES) | Potency | activity change, negative = inhibition |
| --- | --- | --- |
| COc1ccc(-n2nc(C)c([C@@H]3C=C[C@@H](NCc4ccccc4)C3)c2C)cc1 | – | inactive: 12.2% [at 176 µM] |
| O=c1c2ccccc2c(-c2ccc(Cl)cc2)nn1-c1ccccc1 | inconclusive: 56.2 µM [inhibitor, partial curve, poor fit] | – |
| COc1ccccc1Cn1ccnc1SCC(=O)Nc1ccc(C)cc1 | – | inactive: 0.714% |
| COc1ccc(CNC(=O)c2sc(=S)n(-c3ccccc3)c2N)cc1 | inconclusive: 126 µM [inhibitor, single point] | – |
| O=c1[nH]c(/C=C/c2ccc(Cl)cc2Cl)c([N+](=O)[O-])c(=O)[nH]1 | inconclusive: 70.8 µM [inhibitor, partial curve, poor fit] | – |
| CCc1cn(C[C@H](NCCC(C)C)C(=O)O)c(=O)[nH]c1=O | inconclusive: 39.8 µM [inhibitor, full curve, poor fit] | – |
| Cc1ccc(Nc2nc(N)nc(CSc3nnc(C)s3)n2)cc1 | inconclusive: 56.2 µM [inhibitor, single point] | – |
| O=C(C[C@@H]1C/C=C\C[C@@H](Cc2ccc(F)cc2)C(=O)OCCNC1=O)NCCO | – | inactive: 2.81% |
| COc1ccccc1CN1CC[C@@]2(CCCN(C(=O)c3cc(C(F)(F)F)cc(C(F)(F)F)c3)C2)C1 | inconclusive: 25.1 µM [inhibitor, single point] | – |
| COc1cc(C(=O)Nc2ccccc2C(=O)Nc2ccccn2)cc(OC)c1OC | inconclusive: 3.98 µM [inhibitor, full curve, poor fit] | – |
| COc1ccc(C(=O)NC2CCSc3ccccc32)cc1F (stereo not given) | inconclusive: 141 µM [inhibitor, partial curve, poor fit] | – |
| O=C1CCC(C(=O)OC(C(=O)Nc2ccc([N+](=O)[O-])cc2Br)c2ccccc2)=NN1 (stereo not given) | inconclusive: 112 µM [inhibitor, single point] | – |
| CC(=O)Nc1ccc2nc(SCC(=O)NCCOc3ccccc3)sc2c1 | – | inactive: 1.68% |
| Cc1ccc(NC(=O)CSc2ncccc2C#N)cc1C | inconclusive: 44.7 µM [inhibitor, partial curve, poor fit] | – |
| ON=C1C2CC=C(c3ccccc3)C1CCC2 (stereo not given) | inconclusive: 2.51 µM [inhibitor, full curve, poor fit] | – |
| Cc1ccc(-c2csc(NC(=O)c3cc([N+](=O)[O-])ccc3N3CCOCC3)n2)cc1 | – | inactive: -26% |
| CCCNC(=O)Cn1nc(C)n2nc(-c3ccc(CC)cc3)cc2c1=O | – | inactive: 11.5% |
| Cc1ccncc1C(=O)N1CCC2(CC1)CC(CO)N(C(=O)c1ccccc1)C2 (stereo not given) | – | inactive: 6.48% |
| Cc1ccc(-c2cc3ccccc3n2C)cc1 | inconclusive: 89.1 µM [inhibitor, single point] | – |
| Cc1[nH]n(-c2ccccc2)c(=O)c1/C=N/NC(=O)COc1ccccc1[N+](=O)[O-] | inconclusive: 25.1 µM [inhibitor, partial curve, poor fit] | – |
| Cc1cnn(CCC(=O)N2CCC3(CCNCC3)CC2)c1 | inconclusive: 8.91 µM [inhibitor, full curve] | – |
